± gives the standard deviation of the averaged measurements. Most values lie at the level of the controls, where differences are scatter.
Tests used:
Assay in all cases: level (log10 ratio to DMSO vehicle control); higher = higher biomarker level / cell amount than vehicle control
Perfluorooctanoic acid = compound: O=C(O)C(F)(F)C(F)(F)C(F)(F)C(F)(F)C(F)(F)C(F)(F)C(F)(F)F [Perfluorooctanoic acid]; conditions: 2200 nM; in DMSO
Protocol: (§1)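 BioMAP Diversity Plus panel of 12 human primary cell co-culture systems (3C, 4H, LPS, SAg, BT, BF4T, BE3C, CASM3C, HDF3CGF, KF3CT, MyoF, Mphg). Compounds were added 1 h before stimulation and left for 24 h (MyoF 48 h; BT 72 h for soluble read-outs or 6 d for IgG). Biomarkers were read by ELISA, cytotoxicity by SRB, PBMC viability and proliferation by Alamar Blue. Each well value was divided by the mean of 8 DMSO control wells on the same plate and log10 transformed; duplicate blinded samples were tested at 4 concentrations.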

Perfluorodecanoic acid = compound: O=C(O)C(F)(F)C(F)(F)C(F)(F)C(F)(F)C(F)(F)C(F)(F)C(F)(F)C(F)(F)C(F)(F)F [Perfluorodecanoic acid]; conditions: in DMSO
Protocol: as §1

[1] = compound: O=C(O)C(F)(F)C(F)(F)C(F)(F)C(F)(F)C(F)(F)C(F)(F)C(F)(F)F [Ammonium perfluorooctanoate]; conditions: 2200 nM; in DMSO
Protocol: as §1

[2] = compound: OCC(F)(F)OC(F)(F)C(F)(F)OC(F)(F)C(F)(F)OC(F)(F)CO [1H,1H,11H,11H-Perfluorotetraethylene glycol]; conditions: 2200 nM; in DMSO
Protocol: as §1

[3] = compound: O=C(O)C(F)(F)OC(F)(F)C(F)(F)OC(F)(F)F [Perfluoro-3,6-dioxaheptanoic acid]; conditions: 2200 nM; in DMSO
Protocol: as §1

[4] = compound: C=CC(=O)OCC(F)(F)C(F)(F)C(F)(F)C(F)(F)C(F)(F)C(F)(F)C(F)(F)C(F)F [1H,1H,9H-Perfluorononyl acrylate]; conditions: 2200 nM; in DMSO
Protocol: as §1

[5] = compound: CCOC(=O)CC(=O)C(F)(F)C(F)(F)F [Ethyl pentafluoropropionyl acetate]; conditions: 2200 nM; in DMSO
Protocol: as §1

[6] = compound: O=C(CC(=O)C(F)(F)C(F)(F)C(F)(F)F)c1cccs1 [(Perfluorobutyryl)-2-thenoylmethane]; conditions: 2200 nM; in DMSO
Protocol: as §1

Perfluorooctanamidine = compound: N=C(N)C(F)(F)C(F)(F)C(F)(F)C(F)(F)C(F)(F)C(F)(F)C(F)(F)F [Perfluorooctanamidine]; conditions: in DMSO
Protocol: as §1

[7] = compound: O=C(O)CCC(F)(C(F)(F)F)C(F)(F)F [4,4-bis(Trifluoromethyl)-4-fluoropropanoic acid]; conditions: 2200 nM; in DMSO
Protocol: as §1

[8] = compound: FC(F)(F)C(F)(F)C(F)(F)C(F)(F)C(F)(F)C(F)(F)C(F)(F)C(F)(F)CCS [2-(Perfluorooctyl)ethanthiol]; conditions: in DMSO
Protocol: as §1

Perfluorononanoic acid = compound: O=C(O)C(F)(F)C(F)(F)C(F)(F)C(F)(F)C(F)(F)C(F)(F)C(F)(F)C(F)(F)F [Perfluorononanoic acid]; conditions: 2200 nM; in DMSO
Protocol: as §1

[9] = compound: O=C(O)C(F)(F)OC(F)(F)C(F)(F)OC(F)(F)C(F)(F)OC(F)(F)C(F)(F)C(F)(F)C(F)(F)F [Perfluoro-3,6,9-trioxatridecanoic acid]; conditions: 2200 nM; in DMSO
Protocol: as §1

[10] = compound: OCC(F)(F)C(F)(F)C(F)(F)C(F)(F)C(F)(F)C(F)(F)C(F)(F)C(F)(F)CO [1H,1H,10H,10H-Perfluorodecane-1,10-diol]; conditions: 2200 nM; in DMSO
Protocol: as §1

Test System	level (log10) (Perfluorooctanoic acid)	level (log10) (Perfluorodecanoic acid; 2200 nM)	level (log10) (Perfluorodecanoic acid; 6700 nM)	level (log10) (Perfluorodecanoic acid; 20000 nM)	level (log10) [1]	level (log10) [2]	level (log10) [3]	level (log10) [4]	level (log10) [5]	level (log10) [6]	level (log10) (Perfluorooctanamidine; 2200 nM)	level (log10) (Perfluorooctanamidine; 6700 nM)	level (log10) (Perfluorooctanamidine; 20000 nM)	level (log10) (Perfluorooctanamidine; 60000 nM)	level (log10) [7]	level (log10) ([8]; 740 nM)	level (log10) ([8]; 2200 nM)	level (log10) (Perfluorononanoic acid)	level (log10) [9]	level (log10) [10]
HDF3CGF:CXCL10/IP-10	0.015 ± 0.018	-0.0475 ± 0.025	-0.0745 ± 0.015	-0.427 ± 0.019	-0.016 ± 0.0071	-0.0115 ± 0.0078	0.0115 ± 0.018	0.005 ± 0.0042	-0.0155 ± 0.0078	0.0095 ± 0.0078	0.012 ± 0.0042	0.024 ± 0.014	-0.004 ± 0.034	-0.122	-0.019 ± 0.044	-0.0105 ± 0.036	-0.0215 ± 0.029	-0.003 ± 0.013	-0.0215 ± 0.012	0.003 ± 0.016
BE3C:CD54/ICAM-1	0.019 ± 0.021	0.01 ± 0.024	0.085	-1.02 ± 0.012	0.009 ± 0.0057	0.024 ± 0.027	0.003 ± 0.02	0.001 ± 0.016	-0.001 ± 0.045	0.003 ± 0.013	-0.0025 ± 0.015	-0.017 ± 0.0028	-0.019 ± 0.0057	0.027	-0.004 ± 0.011	0.0145 ± 0.037	0.0055 ± 0.022	-0.011 ± 0.017	0.0085 ± 0.019	-0.0015 ± 0.0078
BE3C:PAI-I	0.007 ± 0.045	-0.029 ± 0.0042	-0.0475 ± 0.013	-0.4 ± 0.047	-0.0025 ± 0.016	0.0215 ± 0.021	-0.0275 ± 0.053	-0.0675 ± 0.1	0.022 ± 0.02	-0.137 ± 0.0099	0.026 ± 0.038	0.0015 ± 0.00071	-0.006 ± 0.0099	-0.021	0.0095 ± 0.016	-0.072 ± 0.04	-0.019 ± 0.031	-0.0195 ± 0.033	-0.113 ± 0.033	0.02 ± 0.0057
BT:B cell Proliferation	0.0165 ± 0.025	-0.006 ± 0.02	0.0135 ± 0.04	0.0395 ± 0.03	0.008 ± 0.038	-0.004 ± 0.016	0.028 ± 0.05	-0.0135 ± 0.013	0.026 ± 0.024	-0.018 ± 0.016	0.0185 ± 0.012	-0.0005 ± 0.011	-0.002 ± 0.017	-0.086	0.0095 ± 0.03	-0.012 ± 0.021	0.0245 ± 0.018	0.0505 ± 0.0078	-0.017 ± 0.025	0.016 ± 0.0042
3C:CD54/ICAM-1	0.0025 ± 0.013	0.014 ± 0.02	0.0105 ± 0.0021	0.015 ± 0.0071	0.0185 ± 0.005	0.004 ± 0.016	-0.009 ± 0.02	-0.0035 ± 0.0078	-0.007 ± 0.018	-0.006 ± 0.0057	-0.001 ± 0.02	-0.0065 ± 0.0035	-0.038 ± 0.013	-0.049	-0.009 ± 0.031	-0.0015 ± 0.026	-0.005 ± 0.013	-0.0175 ± 0.00071	0.001 ± 0.028	-0.0035 ± 0.00071
MyoF:PAI-I	0.001 ± 0.0085	0.0005 ± 0.025	0.0035 ± 0.012	0.0205 ± 0.025	0.0015 ± 0.0064	-0.003 ± 0.016	-0.027 ± 0.035	-0.0105 ± 0.033	0.003 ± 0.038	-0.003 ± 0.0085	0.001 ± 0.0028	0.0015 ± 0.0064	-0.0075 ± 0.013	0.021	-0.005 ± 0.013	0.0065 ± 0.00071	0.0015 ± 0.00071	-0.022 ± 0.02	-0.0035 ± 0.021	0.0045 ± 0.011
SAg:CD62E/E-Selectin	-0.015 ± 0.013	-0.0105 ± 0.021	0.0005 ± 0.015	0.0165 ± 0.023	0.0005 ± 0.016	-0.009 ± 0.041	0.001 ± 0.0057	0.014 ± 0.0014	-0.007 ± 0.016	-0.0395 ± 0.032	0.0005 ± 0.013	0.004 ± 0.0014	0.0265 ± 0.00071	-0.049	0.0045 ± 0.0035	0.0105 ± 0.0092	-0.0095 ± 0.0092	0.008 ± 0.018	0.0015 ± 0.021	0.016 ± 0.0071
BF4T:uPA	-0.0195 ± 0.029	0.011 ± 0.017	0.015 ± 0.011	-0.235 ± 0.043	0.0015 ± 0.0078	0.008 ± 0.0042	-0.0205 ± 0.025	0.019 ± 0.0085	-0.012 ± 0.021	-0.05 ± 0.013	0.011 ± 0.016	-0.0185 ± 0.005	-0.0225 ± 0.011	0.05	0.0035 ± 0.019	-0.013 ± 0.067	-0.0445 ± 0.005	-0.0235 ± 0.0092	0.0105 ± 0.012	-0.007 ± 0.051
lMphg:CXCL8/IL-8	0.0375 ± 0.019	0.021 ± 0.0085	0.0415 ± 0.049	0.04 ± 0.023	0.011 ± 0.033	-0.0005 ± 0.03	0.0315 ± 0.011	0.0075 ± 0.013	0.028 ± 0.058	-0.006 ± 0.041	-0.0115 ± 0.011	0.011	0.0425 ± 0.019	0.175	0.045 ± 0.058	0.0425 ± 0.064	0.024 ± 0.0014	0.052 ± 0.014	0.0525 ± 0.0021	-0.004 ± 0.027
LPS:CCL2/MCP-1	0.015 ± 0.0085	0.0075 ± 0.033	-0.0005 ± 0.012	-0.0015 ± 0.0064	0.0085 ± 0.0092	0.017 ± 0.048	-0.003 ± 0.042	0.015 ± 0.014	-0.0185 ± 0.011	0.002 ± 0.033	0.013 ± 0.018	-0.0005 ± 0.021	-0.003 ± 0.0028	-0.023	0.0425 ± 0.0064	0.01 ± 0.031	0.0235 ± 0.0078	0.005 ± 0.014	-0.036 ± 0.024	-0.0025 ± 0.029
HDF3CGF:Collagen I	-0.0075 ± 0.033	0.046 ± 0.024	-0.02 ± 0.025	-0.0095 ± 0.04	0.0455 ± 0.029	0.027 ± 0.079	0.018 ± 0.017	-0.0225 ± 0.07	0.0035 ± 0.011	0.0095 ± 0.088	0.0345 ± 0.042	-0.015 ± 0.0085	-0.025 ± 0.03	-0.021	0.0135 ± 0.074	0.0175 ± 0.012	-0.027 ± 0.03	-0.016 ± 0.062	0.034 ± 0.12	0.012 ± 0.014
CASM3C:CD87/uPAR	-0.041 ± 0.054	0.005 ± 0.013	-0.0055 ± 0.005	0.016 ± 0.011	0.0255 ± 0.023	-0.014 ± 0.0085	0.0025 ± 0.0021	0.0345 ± 0.022	-0.0265 ± 0.022	-0.0285 ± 0.046	-0.012 ± 0.017	-0.011 ± 0.016	-0.02 ± 0.037	-0.034	0.008 ± 0.02	-0.034 ± 0.048	-0.0445 ± 0.061	0.0055 ± 0.0078	-0.0055 ± 0.021	0.005 ± 0.0099

Part of the list above, bar-delimited:
Test System | level (log10) (Perfluorooctanoic acid) | level (log10) (Perfluorodecanoic acid; 2200 nM) | level (log10) (Perfluorodecanoic acid; 6700 nM) | level (log10) (Perfluorodecanoic acid; 20000 nM) | level (log10) [1] | level (log10) [2] | level (log10) [3] | level (log10) [4] | level (log10) [5] | level (log10) [6] | level (log10) (Perfluorooctanamidine; 2200 nM) | level (log10) (Perfluorooctanamidine; 6700 nM) | level (log10) (Perfluorooctanamidine; 20000 nM) | level (log10) (Perfluorooctanamidine; 60000 nM) | level (log10) [7] | level (log10) ([8]; 740 nM) | level (log10) ([8]; 2200 nM) | level (log10) (Perfluorononanoic acid) | level (log10) [9] | level (log10) [10]
BT:B cell Proliferation | 0.0165 ± 0.025 | -0.006 ± 0.02 | 0.0135 ± 0.04 | 0.0395 ± 0.03 | 0.008 ± 0.038 | -0.004 ± 0.016 | 0.028 ± 0.05 | -0.0135 ± 0.013 | 0.026 ± 0.024 | -0.018 ± 0.016 | 0.0185 ± 0.012 | -0.0005 ± 0.011 | -0.002 ± 0.017 | -0.086 | 0.0095 ± 0.03 | -0.012 ± 0.021 | 0.0245 ± 0.018 | 0.0505 ± 0.0078 | -0.017 ± 0.025 | 0.016 ± 0.0042
3C:CD54/ICAM-1 | 0.0025 ± 0.013 | 0.014 ± 0.02 | 0.0105 ± 0.0021 | 0.015 ± 0.0071 | 0.0185 ± 0.005 | 0.004 ± 0.016 | -0.009 ± 0.02 | -0.0035 ± 0.0078 | -0.007 ± 0.018 | -0.006 ± 0.0057 | -0.001 ± 0.02 | -0.0065 ± 0.0035 | -0.038 ± 0.013 | -0.049 | -0.009 ± 0.031 | -0.0015 ± 0.026 | -0.005 ± 0.013 | -0.0175 ± 0.00071 | 0.001 ± 0.028 | -0.0035 ± 0.00071

From the supplement of paper PMC10331698
